Reference: publication PMC9256704
Results are given in words; binding and its absence hold for the method and conditions named. Binding seen in cells or lysates may run through a third protein. Some binding calls cover weakened binding; strength is not graded here. For some assays here: Tags and fused reporters may be left off the sequences shown.

By UniProt entry, the sequences of proteins in these tests, tags left out. Where a name states a change or a piece, a line headed by the entry shows the natural chain unless it says otherwise.
UniProt P14618: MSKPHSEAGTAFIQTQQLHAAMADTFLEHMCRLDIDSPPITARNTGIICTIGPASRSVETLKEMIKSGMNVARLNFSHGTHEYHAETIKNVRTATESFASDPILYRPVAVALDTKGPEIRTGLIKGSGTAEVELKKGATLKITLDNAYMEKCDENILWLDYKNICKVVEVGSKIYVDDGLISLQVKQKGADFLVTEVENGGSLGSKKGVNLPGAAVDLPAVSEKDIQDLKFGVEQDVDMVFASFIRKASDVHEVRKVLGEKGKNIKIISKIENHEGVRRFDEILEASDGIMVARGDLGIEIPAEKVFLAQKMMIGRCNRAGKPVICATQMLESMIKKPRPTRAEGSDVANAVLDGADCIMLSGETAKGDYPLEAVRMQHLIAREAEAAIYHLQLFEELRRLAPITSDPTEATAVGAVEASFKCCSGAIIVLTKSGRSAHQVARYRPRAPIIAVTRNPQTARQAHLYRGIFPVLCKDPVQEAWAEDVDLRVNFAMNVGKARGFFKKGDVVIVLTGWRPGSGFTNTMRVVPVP

Key:
[1] = target: T1, TRIB2, endogenous (human (endogenous in A549)) (UniProt Q92519); assay: co-IP; lysates of A549 cells (endogenous proteins, or GFP-TRIB2-overexpressed cells) incubated with primary antibodies or control IgG overnight at 4 °C, protein G/A beads 2 h at 4 °C; immunoblotting
T1 sequence: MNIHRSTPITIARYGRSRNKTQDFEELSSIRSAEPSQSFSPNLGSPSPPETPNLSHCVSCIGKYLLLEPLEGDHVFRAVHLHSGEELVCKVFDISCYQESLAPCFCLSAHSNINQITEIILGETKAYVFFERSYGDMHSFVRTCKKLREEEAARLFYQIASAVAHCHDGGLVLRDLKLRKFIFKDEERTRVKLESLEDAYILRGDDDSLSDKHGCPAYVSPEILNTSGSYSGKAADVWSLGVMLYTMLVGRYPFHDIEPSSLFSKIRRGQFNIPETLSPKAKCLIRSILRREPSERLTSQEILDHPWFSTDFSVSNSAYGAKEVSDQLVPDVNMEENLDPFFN

GST-TRIB2-A (1-308) = target: T2, GST-TRIB2-A (1-308) (UniProt Q92519); assay: pull-down; GST-fusion protein from E. coli bound to GST beads, incubated with cell lysates (A549, H1299 or other cells) for 4 h at 4 °C; adsorbed proteins by immunoblotting; the results call it Co-IP with anti-GST antibodies; only the target purified
T2 sequence: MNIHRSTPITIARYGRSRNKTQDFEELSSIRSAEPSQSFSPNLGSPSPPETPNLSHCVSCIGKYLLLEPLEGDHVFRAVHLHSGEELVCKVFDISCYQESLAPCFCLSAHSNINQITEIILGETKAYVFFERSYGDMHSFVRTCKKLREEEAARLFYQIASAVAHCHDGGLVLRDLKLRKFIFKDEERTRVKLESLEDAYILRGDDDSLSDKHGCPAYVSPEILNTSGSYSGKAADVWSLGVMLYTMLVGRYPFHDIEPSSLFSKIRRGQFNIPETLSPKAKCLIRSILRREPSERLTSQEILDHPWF

GST-TRIB2-D (308–343) = target: T3, GST-TRIB2-D (308–343) (UniProt Q92519); assay: as above
T3 sequence: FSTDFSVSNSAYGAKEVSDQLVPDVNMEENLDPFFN

GST-TRIB2-Full = target: T4, GST-TRIB2-Full (UniProt Q92519); assay: as above
T4 sequence: T1 sequence

[2] = target: T1, TRIB2, endogenous (human (endogenous in A549)); assay: co-IP; GST-PKM2 deletion mutants induced by IPTG and incubated with lysates of A549 cells; Co-IP with TRIB2 antibodies (legend of Fig. 2K); only the binder purified

binding [1]	binding (GST-TRIB2-A (1-308))	binding (GST-TRIB2-D (308–343))	binding (GST-TRIB2-Full)	binding [2]	Substance
binds	binds	binds	binds		PKM2 (M2 isoform of pyruvate kinase), endogenous (from UniProt P14618 1-531)
				binds	GST-PKM2 (241–408) (from UniProt P14618 241-408) (domain or fragment)
